Test system: Human colon cancer tissue and normal tissue
Experiment: TPM imaging of AG2 uptake in human colon normal and cancer tissue slices
Experimental: In the present invention, an additional assessment was made of the utility of AG2 in tissue imaging for the diagnosis of colon cancer. In this regard, the images of normal- and cancer-tissue slices from colon-cancer patients were employed. […] The tissues were incubated in artificial cerebrospinal fluid (ACSF) for 4 h at 37° C. in the absence and presence of taxol (50 μM), after which AG2 uptake was monitored with TPM by following the change in TPEF at a depth of 100 μm.
Human colon cancer tissue and normal tissue were obtained from colon cancer patients by conducting colonoscopic examinations and taking samples.
Normal tissues, cancerous tissue, and cancerous tissue containing 50 μM taxol were incubated in artificial cerebrospinal fluid (ACSF) bubbled with 95% O2 and 5% CO2 for 4 hrs at 37° C. The tissues were then washed three times with ACSF, transferred to glass-bottomed dishes (MatTek), added with 50 μM AG2, and observed by TPM.
To determine whether the relative uptake was affected by incubation in ACSF, the same experiment was conducted with normal tissue and colon cancerous tissue obtained immediately after the colonoscopic biopsy.

CC(=O)c1ccc2cc(N(C)CC(=O)N3CCN(CCOC4OC(CO)C(O)C(O)C4O)CC3)ccc2c1 (centres unmarked) [AG2]
AG2 uptake at imaging depth (tissue depth >150 μm): negligible | Time uptake could be monitored without noticeable decay (tissue slices, TPM): more than 3000 s
